{
  "sequences": {"note": "The chains behind the UniProt entries cited, without tags or fusion partners.", "UniProt Q8LAZ7": "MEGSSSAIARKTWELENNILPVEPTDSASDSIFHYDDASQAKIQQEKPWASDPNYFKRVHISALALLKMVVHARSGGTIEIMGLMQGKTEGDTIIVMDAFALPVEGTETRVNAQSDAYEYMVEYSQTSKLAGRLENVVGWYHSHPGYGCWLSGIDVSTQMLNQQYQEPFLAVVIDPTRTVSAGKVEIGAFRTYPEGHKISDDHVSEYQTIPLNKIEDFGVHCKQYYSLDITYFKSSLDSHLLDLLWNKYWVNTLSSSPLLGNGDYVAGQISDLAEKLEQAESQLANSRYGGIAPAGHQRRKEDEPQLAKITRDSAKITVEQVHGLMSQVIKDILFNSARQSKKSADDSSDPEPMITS", "UniProt Q94AH6": "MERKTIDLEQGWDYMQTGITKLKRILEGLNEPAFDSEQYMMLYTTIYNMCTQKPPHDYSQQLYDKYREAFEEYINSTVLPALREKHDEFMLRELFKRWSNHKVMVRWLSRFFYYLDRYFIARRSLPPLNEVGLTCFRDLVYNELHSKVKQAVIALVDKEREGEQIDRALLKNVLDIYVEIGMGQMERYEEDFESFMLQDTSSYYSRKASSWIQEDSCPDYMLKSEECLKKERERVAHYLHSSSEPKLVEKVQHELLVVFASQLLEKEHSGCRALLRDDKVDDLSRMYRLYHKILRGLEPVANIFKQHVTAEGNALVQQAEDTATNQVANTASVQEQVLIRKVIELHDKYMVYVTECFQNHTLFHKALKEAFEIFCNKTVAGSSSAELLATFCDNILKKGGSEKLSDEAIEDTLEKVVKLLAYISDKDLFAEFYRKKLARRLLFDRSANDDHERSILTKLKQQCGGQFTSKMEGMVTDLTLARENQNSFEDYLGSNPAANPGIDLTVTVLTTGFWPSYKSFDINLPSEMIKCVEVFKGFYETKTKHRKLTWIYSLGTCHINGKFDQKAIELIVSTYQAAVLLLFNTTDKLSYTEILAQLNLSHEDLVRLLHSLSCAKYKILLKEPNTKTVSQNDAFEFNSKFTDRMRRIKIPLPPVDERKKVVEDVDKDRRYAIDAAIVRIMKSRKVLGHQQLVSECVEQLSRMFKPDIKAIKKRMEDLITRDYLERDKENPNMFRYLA", "UniProt Q39255": "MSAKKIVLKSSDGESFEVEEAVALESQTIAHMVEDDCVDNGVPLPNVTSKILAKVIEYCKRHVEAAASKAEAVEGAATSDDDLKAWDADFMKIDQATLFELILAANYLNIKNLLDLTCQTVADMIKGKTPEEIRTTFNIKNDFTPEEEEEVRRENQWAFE"},
  "source": "paper PMC7950214",
  "key": {"[1]": {"target": "T1, GS-MAX2ΔFBOX (MAX2 without its first 53 amino acids, N-terminal GS tag) (Arabidopsis thaliana) (UniProt Q9SIM9)", "T1 sequence": "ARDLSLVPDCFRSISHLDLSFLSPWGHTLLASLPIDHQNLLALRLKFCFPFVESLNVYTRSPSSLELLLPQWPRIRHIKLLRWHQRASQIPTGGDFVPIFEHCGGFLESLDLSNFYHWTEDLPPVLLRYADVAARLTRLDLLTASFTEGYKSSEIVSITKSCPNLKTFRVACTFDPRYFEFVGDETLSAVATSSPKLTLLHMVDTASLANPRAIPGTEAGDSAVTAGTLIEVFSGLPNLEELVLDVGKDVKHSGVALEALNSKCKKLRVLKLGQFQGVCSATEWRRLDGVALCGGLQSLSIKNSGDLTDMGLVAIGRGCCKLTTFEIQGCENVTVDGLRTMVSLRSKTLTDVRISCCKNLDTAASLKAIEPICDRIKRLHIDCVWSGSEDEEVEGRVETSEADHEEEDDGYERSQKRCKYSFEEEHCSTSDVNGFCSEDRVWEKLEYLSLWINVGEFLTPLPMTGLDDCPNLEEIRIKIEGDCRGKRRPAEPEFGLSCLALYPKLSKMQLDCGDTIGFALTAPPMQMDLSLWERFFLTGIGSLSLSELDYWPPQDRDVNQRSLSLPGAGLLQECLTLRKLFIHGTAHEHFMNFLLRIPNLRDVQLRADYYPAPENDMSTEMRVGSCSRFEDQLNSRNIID", "assay": "affinity purification with mass spectrometry; tandem affinity purification (IgG-Sepharose, AcTEV, streptavidin beads) of the N-terminally GS-tagged bait from Arabidopsis PSB-D cell culture extracts; cells treated 5 h with 0.01% acetone (mock) or 1 μM rac-GR24; two replicates each; LC-MS/MS; background proteins filtered out"}, "[2]": {"target": "T2, GS-MAX2 (MORE AXILLARY GROWTH 2, N-terminal GS tag) (Arabidopsis thaliana) (UniProt Q9SIM9)", "T2 sequence": "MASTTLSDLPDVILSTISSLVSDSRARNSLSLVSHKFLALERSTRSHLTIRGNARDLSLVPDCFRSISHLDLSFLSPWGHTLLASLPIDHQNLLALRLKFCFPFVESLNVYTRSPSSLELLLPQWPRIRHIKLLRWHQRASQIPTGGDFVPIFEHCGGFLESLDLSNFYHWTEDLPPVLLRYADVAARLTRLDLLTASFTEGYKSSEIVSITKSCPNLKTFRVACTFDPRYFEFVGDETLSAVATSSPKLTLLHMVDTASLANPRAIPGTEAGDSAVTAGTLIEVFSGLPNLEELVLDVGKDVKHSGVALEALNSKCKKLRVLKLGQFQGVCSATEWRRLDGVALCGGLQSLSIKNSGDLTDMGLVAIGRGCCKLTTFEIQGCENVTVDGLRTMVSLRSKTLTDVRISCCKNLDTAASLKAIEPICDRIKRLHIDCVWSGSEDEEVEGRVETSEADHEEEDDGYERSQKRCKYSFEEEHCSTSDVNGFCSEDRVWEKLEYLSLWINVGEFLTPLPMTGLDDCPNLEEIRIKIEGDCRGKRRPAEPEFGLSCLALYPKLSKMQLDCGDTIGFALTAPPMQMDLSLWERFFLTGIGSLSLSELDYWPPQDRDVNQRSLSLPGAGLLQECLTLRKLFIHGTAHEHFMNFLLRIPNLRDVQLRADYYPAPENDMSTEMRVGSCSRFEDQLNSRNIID", "assay": "affinity purification with mass spectrometry; tandem affinity purification (IgG-Sepharose, AcTEV, streptavidin beads) of the N-terminally GS-tagged bait from Arabidopsis PSB-D cell culture extracts; cells treated 5 h with 0.01% acetone (mock) or 1 μM rac-GR24; two replicates each; LC-MS/MS; background proteins filtered out"}},
  "note": "Results are given in words; binding and its absence hold for the method and conditions named. In cells and extracts the contact can be indirect. Here binding means that the protein was enriched with, or labelled near, the bait; the list need not be complete. No binding means not detected with the bait. Where a sequence is shown, tags or fusion partners need not be part of it.",
  "data": [
    {"molecule": "CSN5A (from UniProt Q8LAZ7 1-357)", "values": [
      {"measurement": "binding", "setting": "[1]", "value": "no binding"},
      {"measurement": "binding", "setting": "[2]", "value": "binds"}
    ]},
    {"molecule": "CUL1 (from UniProt Q94AH6 1-738)", "values": [
      {"measurement": "binding", "setting": "[1]", "value": "no binding"},
      {"measurement": "binding", "setting": "[2]", "value": "binds"}
    ]},
    {"molecule": "SKP1 (from UniProt Q39255 1-160)", "values": [
      {"measurement": "binding", "setting": "[1]", "value": "no binding"},
      {"measurement": "binding", "setting": "[2]", "value": "binds"}
    ]},
    {"molecule": "CSN6A (protein, UniProt Q8W206 1-317) MAPSSSSGLTFKLHPLVIVNISDHYTRVKTQLNPPASICASGHGSNNGEAMFQQNPRVYGCVIGVQRGRTVEIFNSFELLYDPSTQTLDRSFLEKKQELYKKVFPDFYILGWYSTGSDAEESDMHIHKALMDINESPVYVLLNPAINHTQKDLPVTIYESELHVIDGIPQLIFAHTSYTIETVEAERISVDHVAHLKPSDGGSAATQLAAHLTGIHSAIKMLNSRIRVLYQNLAAMQKGDKSCDNSVLRQVSSLLRRLPAMESERFQDNFLMEYNDKLLITYLAMITNCSSNMNEMVDKFNTAYDRNTRRGGRTAFM", "values": [
      {"measurement": "binding", "setting": "[1]", "value": "no binding"},
      {"measurement": "binding", "setting": "[2]", "value": "binds"}
    ]},
    {"molecule": "PFD2 (protein, UniProt Q9LJ98 1-148) MASKSGSGGLREPPNEQAVLNMYEGKRSELSQIYSNITDLEMQVSEHSLVINAIQPLDQSRKCFRMIGGVLVERTIKEVLPAVQRNKDGLEEVVRKLYETLEKKKKDLTEFEAKYKIRITKQEDNKEGGNKKEGNAQGVLVGAASSSQ", "values": [
      {"measurement": "binding", "setting": "[1]", "value": "binds"},
      {"measurement": "binding", "setting": "[2]", "value": "no binding"}
    ]},
    {"molecule": "PFD3 (protein, UniProt P57741 1-195) MSSSSPSGSGSDLTERRGIPAAKFIQDVETYLSQSGLDPNSALAFHQERLQQYKVVEMKLLAQQRDLQAKIPDIEKCLEVVATLEAKKGTGEALLADFEVSEGIYSRACIEDTDSVCLWLGANVMLEYSCEEASALLKNNLENAKASLEVLVADLQFLRDQVTVTQVTIARVYNWDVHQRRVKQVTPTAIAVADS", "values": [
      {"measurement": "binding", "setting": "[1]", "value": "binds"},
      {"measurement": "binding", "setting": "[2]", "value": "no binding"}
    ]},
    {"molecule": "ATSGT1B (protein, UniProt Q9SUT5 1-358) MAKELAEKAKEAFLDDDFDVAVDLYSKAIDLDPNCAAFFADRAQANIKIDNFTEAVVDANKAIELEPTLAKAYLRKGTACMKLEEYSTAKAALEKGASVAPNEPKFKKMIDECDLRIAEEEKDLVQPMPPSLPSSSTTPLATEADAPPVPIPAAPAKPMFRHEFYQKPEEAVVTIFAKKVPKENVTVEFGEQILSVVIDVAGEEAYHLQPRLFGKIIPEKCRFEVLSTKVEIRLAKAEIITWASLEYGKGQSVLPKPNVSSALSQRPVYPSSKPAKDWDKLEAEVKKQEKDEKLDGDAAMNKFFSDIYSSADEDMRRAMNKSFAESNGTVLSTNWKEVGTKKVESTPPDGMELKKWEY", "values": [
      {"measurement": "binding", "setting": "[1]", "value": "binds"},
      {"measurement": "binding", "setting": "[2]", "value": "no binding"}
    ]},
    {"molecule": "ASK4 (protein, UniProt Q9LNT9 1-163) MAETKKMIILKSSDGESFEIEEAVAVKSQTIKHMIEDDCADNGIPLPNVTGAILAKVIEYCKKHVEAAAEAGGDKDFYGSAENDELKNWDSEFVKVDQPTLFDLILAANYLNIGGLLDLTCKAVADQMRGKTPEQMRAHFNIKNDYTPEEEAEVRNENKWAFE", "values": [
      {"measurement": "binding", "setting": "[1]", "value": "no binding"},
      {"measurement": "binding", "setting": "[2]", "value": "binds"}
    ]},
    {"molecule": "ASK13 (protein, UniProt Q9M1X5 1-154) MSKMVMLLSSDGESFQVEEAVAVQSQTIAHMIEDDCVANGVPIANVTGVILSKVIEYCKKHVVSDSPTEESKDELKKWDAEFMKALEQSSTLFDVMLAANYLNIKDLLDLGCQTVADMITGKKPDEIRALLGIENDFTPEEEEEIRKENQWAFE", "values": [
      {"measurement": "binding", "setting": "[1]", "value": "no binding"},
      {"measurement": "binding", "setting": "[2]", "value": "binds"}
    ]},
    {"molecule": "CSN1 (protein, UniProt P45432 1-441) MERDEEASGPMMEMCTNGGEETSNRRPIISGEPLDIEAYAALYKGRTKIMRLLFIANHCGGNHALQFDALRMAYDEIKKGENTQLFREVVNKIGNRLGEKYGMDLAWCEAVDRRAEQKKVKLENELSSYRTNLIKESIRMGYNDFGDFYYACGMLGDAFKNYIRTRDYCTTTKHIIHMCMNAILVSIEMGQFTHVTSYVNKAEQNPETLEPMVNAKLRCASGLAHLELKKYKLAARKFLDVNPELGNSYNEVIAPQDIATYGGLCALASFDRSELKQKVIDNINFRNFLELVPDVRELINDFYSSRYASCLEYLASLKSNLLLDIHLHDHVDTLYDQIRKKALIQYTLPFVSVDLSRMADAFKTSVSGLEKELEALITDNQIQARIDSHNKILYARHADQRNATFQKVLQMGNEFDRDVRAMLLRANLLKHEYHARSARKL", "values": [
      {"measurement": "binding", "setting": "[1]", "value": "no binding"},
      {"measurement": "binding", "setting": "[2]", "value": "binds"}
    ]},
    {"molecule": "FUS12 (protein, UniProt Q8W207 1-439) MASDADMEDYGFEYSDEEQEEQDVDIENQYYNSKGMVETEPEEALSGFAEVVQMEPEKADWGFKALKQTVKIYYRLGKYKEMMEAYTEMLTYIKSAVTRNYSEKCINNIMDFVSGSASQNTGLLQEFYQTTLKALEEAKNERLWFKTNLKLCNIWFDIGEYRRMTKILKELHKSCQKEDGTDDQKKGSQLLEVYAIEIQIYTETKDNKKLKQLYHKALAIKSAIPHPRIMGIIRECGGKMHMAERQWEEAATDFFEAFKNYDEAGNQRRIQCLKYLVLANMLMESEVNPFDGQEAKPYKNDPEILAMTNLIAAYQRNEIIEFERILKSNRRTIMDDPFIRNYMEDLLKKVRTQVLLKLIKPYTKIGIPFISKELNVPETDVTELLVSLILDSRIDGHIDEMNRYLLRGDSGNGRKLHKAVDKWNSQLKSLSSNITSRVC", "values": [
      {"measurement": "binding", "setting": "[1]", "value": "no binding"},
      {"measurement": "binding", "setting": "[2]", "value": "binds"}
    ]},
    {"molecule": "COP13 (protein, UniProt Q8W575 1-429) MIGAVNSVEAVITSIQGLSGSPEDLSALHDLLRGAQDSLRAEPGVNFSTLDQLDASKHSLGYLYFLEVLTCGPVSKEKAAYEIPIIARFINSCDAGQIRLASYKFVSLCKILKDHVIALGDPLRGVGPLLNAVQKLQVSSKRLTALHPDVLQLCLQAKSYKSGFSILSDDIVEIDQPRDFFLYSYYGGMICIGLKRFQKALELLYNVVTAPMHQVNAIALEAYKKYILVSLIHNGQFTNTLPKCASTAAQRSFKNYTGPYIELGNCYNDGKIGELEALVVARNAEFEEDKNLGLVKQAVSSLYKRNILRLTQKYLTLSLQDIANMVQLGNAKEAEMHVLQMIQDGQIHALINQKDGMVRFLEDPEQYKSSEMIEIMDSVIQRTIGLSKNLLAMDESLSCDPLYLGKVGRERQRYDFGDDFDTVPQKFSM", "values": [
      {"measurement": "binding", "setting": "[1]", "value": "no binding"},
      {"measurement": "binding", "setting": "[2]", "value": "binds"}
    ]},
    {"molecule": "COP8 (protein, UniProt Q8L5U0 1-397) MDEALTNASAIGDQRQKIEQYKLILSSVLSSNDLLQAQRFIDHILSDDVPLVVSRQLLQSFAQELGRLEPETQKEIAQFTLTQIQPRVVSFEEQALVIREKLAGLYESEQEWSKAAQMLSGIDLDSGMRAVDDNFKLSKCIQIARLYLEDDDAVNAEAFINKASFLVSNSQNEVLNLQYKVCYARILDMKRKFLEAALRYYGISQIEQRQIGDEEIDENALEQALSAAVTCTILAGAGPQRSRVLATLYKDERCSKLKIYPILQKVYLERILRRPEIDAFSEELRPHQKASLPDKSTVLDRAMIEHNLLSASKLYTNIRFDELGTLLAIDPRKAEKIAANMIGQDRMRGSIDQEEAVIHFEDDVEELQQWDQQISGLCQALNDILDGMAKKGMSVPV", "values": [
      {"measurement": "binding", "setting": "[1]", "value": "no binding"},
      {"measurement": "binding", "setting": "[2]", "value": "binds"}
    ]},
    {"molecule": "KARRIKIN … 2 (KAI2), endogenous (receptor, UniProt Q9SZU7 1-270) MGVVEEAHNVKVIGSGEATIVLGHGFGTDQSVWKHLVPHLVDDYRVVLYDNMGAGTTNPDYFDFDRYSNLEGYSFDLIAILEDLKIESCIFVGHSVSAMIGVLASLNRPDLFSKIVMISASPRYVNDVDYQGGFEQEDLNQLFEAIRSNYKAWCLGFAPLAVGGDMDSIAVQEFSRTLFNMRPDIALSVGQTIFQSDMRQILPFVTVPCHILQSVKDLAVPVVVSEYLHANLGCESVVEVIPSDGHLPQLSSPDSVIPVILRHIRNDIAM", "values": [
      {"measurement": "binding", "setting": "[2]", "value": "no binding"}
    ]}
  ]
}
